These are yes or no findings as the source states them, for the method shown. In cells and extracts the contact can be indirect. Some entries that bind do so weakly or less than the wild type.
Legend:
[1] = target: TRIM50 protein expressed by the in vitro transcription and translation system (human) (UniProt Q86XT4); experiment: co-IP; TRIM50 and SNAIL separately expressed by in vitro transcription and translation, mixed together, immunoprecipitated by the TRIM50 antibody, western blot by SNAIL antibody
[2] = target: TRIM50 in cytoplasmic and nuclear fractions of HepG2 cells (human (endogenous in HepG2)) (UniProt Q86XT4); experiment: co-IP; cytoplasmic and nuclear fractions prepared from HepG2 cells; co-IP in each fraction
[3] = target: Tripartite motif-containing 50 (TRIM50), expressed from the TRIM50 plasmid in HCC cells (human) (UniProt Q86XT4); experiment: co-IP; BEL7402 and HepG2 cells transfected with TRIM50 plasmid or mock control; immunoprecipitation from lysates and western blot

Amino acid sequences for entries named in this document (tags omitted).
UniProt Q86XT4: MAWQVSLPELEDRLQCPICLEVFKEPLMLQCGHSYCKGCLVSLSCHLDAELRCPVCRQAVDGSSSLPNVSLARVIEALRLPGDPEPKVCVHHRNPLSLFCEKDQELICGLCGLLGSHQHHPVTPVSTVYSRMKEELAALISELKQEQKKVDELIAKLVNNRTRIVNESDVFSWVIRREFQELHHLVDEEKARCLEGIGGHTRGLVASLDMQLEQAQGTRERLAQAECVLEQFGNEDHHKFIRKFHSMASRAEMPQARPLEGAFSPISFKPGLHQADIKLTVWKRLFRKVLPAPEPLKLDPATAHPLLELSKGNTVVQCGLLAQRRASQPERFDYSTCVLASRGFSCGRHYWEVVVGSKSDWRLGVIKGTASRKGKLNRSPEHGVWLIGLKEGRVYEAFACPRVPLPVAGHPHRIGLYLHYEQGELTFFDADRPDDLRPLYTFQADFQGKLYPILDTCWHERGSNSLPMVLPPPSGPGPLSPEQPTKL
UniProt O95863: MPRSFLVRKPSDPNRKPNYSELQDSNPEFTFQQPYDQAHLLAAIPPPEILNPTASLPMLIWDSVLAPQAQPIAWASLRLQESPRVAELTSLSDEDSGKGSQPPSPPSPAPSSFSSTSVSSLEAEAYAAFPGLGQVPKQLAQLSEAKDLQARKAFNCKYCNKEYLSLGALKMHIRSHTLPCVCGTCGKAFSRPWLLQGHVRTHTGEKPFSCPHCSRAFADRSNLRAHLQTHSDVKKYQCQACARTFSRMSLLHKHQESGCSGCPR

binding [1]	binding [2]	binding [3]	Substance
binds			SNAIL protein expressed by the in vitro transcription and translation system (from UniProt O95863 1-264)
	binds	binds	SNAIL protein in HCC cells (from UniProt O95863 1-264)

Reference: PMC5964248
